Laboratory results: PubChem BioAssay AID1671195 (Yale University, 2021)
Assay: 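Genes whose knockdown alters LDL uptake in liver cancer cells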 (primary screen). Cells: human Huh7 hepatoma cells. Knock-down reagent: siRNA pool against human genes, 18 nM. Duration: about 2 to 2.5 days of knockdown, then 8 h LDL uptake. Treatment: DiI-labelled LDL at 30 µg/ml for 8 h, in lipoprotein-deficient serum medium. Read-out: 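Per-cell DiI-LDL intensity by automated imaging; well means scaled to the plate median and given as a robust z-score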. Reading the numbers: robust z-score: higher = more LDL uptake after knockdown. Rule for the call: 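Active when two or more replicates show a robust z-score above 2 or below -2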.
This is an unselected part of about 22,000 reagents. Over the whole deposit, about 1,510 (6.9%) got an active call. 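Active includes knockdowns raising or lowering LDL uptake; positive z-scores mean more uptake, negative mean less.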 Unmarked entries are inactive. Reagents against one gene are numbered here.

Target gene	pool no.	robust z-score, replicate 1	robust z-score, replicate 2	robust z-score, replicate 3
QPCT	1	1.81	1.76	1.57
RSPRY1	1	0.42	0.525	0.411
TAS2R43	1	-0.0898	-0.00596	0.0855
GPALPP1	1	0.245	1.77	1.1
SPATA21	1	-0.768	-0.761	-0.7
LOC440372 (retired record)	1	0.975	0.554	0.6
G0S2	1	-1.23	0.749	0.325
GNGT2	1	-0.382	0.191	0.113
CD3E	1	0.0758	-0.652	0.466
C1orf146	1	0.216	0.14	0.0344
B3GNT9	1	-0.734	-0.931	-1.14
NKAP	1	0.0309	-0.131	-0.0749
AMDHD2	1	-0.241	0.896	-0.613
ATP5F1B	1	0.0905	0.561	-0.293
EARS2	1	1.77	1.79	1.27
LOC341098 (retired record)	1	0.918	0.725	1.3
CCDC170	1	0.522	0.0687	-0.0475
HSPA8	1	-0.751	-0.502	-0.704
COMMD7	1	4.11 (active)	5.03	4.76
LOC401478	1	-0.549	0.0921	0.524
OR2G2	1	1.01	1.09	1.93
LDHAL6A	1	1.8	1.69	1.72
LOC442671 (retired record)	1	-0.129	0.561	0.57
DDX52	1	0.789	1.6	3.44
VEGFC	1	1.85	0.15	0.341
MYBL1	1	1.83	1.02	0.989
FAM156A	1	1.72	1.14	2.15
COX20	1	0.26	0.829	1.21
MYEF2	1	-0.0107	0.546	-0.526
ZNF513	1	-0.0245	-0.134	0.37
HECTD2	1	-0.958	-0.561	-0.0267
DNAH5	1	-1.2	-1.59	-1.06
GCA	1	2.58	1.29	1.31
LOC441547 (retired record)	1	-0.859	-1.04	-1.32
WNT9A	1	0.607	0.139	-0.318
ATP5IF1	1	2.31 (active)	2.02	2.44
DENND2D	1	0.0453	0.677	0.644
CDV3	1	1.28	1.59	1.97
ACBD6	1	0.323	-0.486	-0.0821
PSMC3	1	-0.923	-0.971	-1.55
SSR2	1	-0.858	-0.471	-0.0977
ZNF516-DT	1	2.65 (active)	2.79	2.24
S1PR2	1	-0.534	1.16	0.567
LOC440679 (retired record)	1	-2.34 (active)	-1.88	-2
ST18	1	-0.65	-0.848	-1.15
TCL1B	1	-1.16	-0.641	-1.2
LOC401499 (retired record)	1	-0.207	-0.644	-0.375
GZMB	1	-0.493	-0.852	-0.973
LOC442111 (retired record)	1	-0.798	-0.789	-0.826
LMNTD2	1	-1.11	-1.08	-1.29
KLK4	1	0.288	-0.224	0.3
HBQ1	1	0.398	-1.58	-3.23
LSM8	1	-0.378	-0.979	-1.31
RBM41	1	-0.504	0.779	-0.455
FLJ40712 (retired record)	1	1.02	0.813	0.0556
MYO9A	1	0.0158	0.447	0.0694
GDF2	1	0.921	1.57	2.38
MSH6	1	-1.27	-1.42	-0.967
LOC400675 (retired record)	1	-1.94 (active)	-2.02	-1.88
TRAPPC4	1	-0.89	-0.654	-0.819
LOC442012 (retired record)	1	-1.07	-1.11	-0.684
PRR20A	1	-0.389	-0.352	0.0116
TFEB	1	-0.548	-0.724	-0.698
GPR37L1	1	1.62	0.83	0.955
RIMKLB	1	0.000946	0.95	0.302
MEGF9	1	1.56	1.26	1.07
DCLK3	1	0.667	0.0634	-0.6
ARL4AP1	1	-2.15	-1.52	-1.78
LOC441462 (retired record)	1	1.19	0.584	0.835
CDH17	1	-1.3	-0.629	-0.921
BIK	1	0.481	0.258	0.916
FOLR1P1	1	-0.419	-0.162	-0.71
POLR2M	1	-0.397	0.295	0.421
CLIC1P1	1	2.22 (active)	2.05	2.56
FBXO40	1	1.38	2.03	1.34
PTBP3	1	2.25 (active)	3.5	2.31
VIL1	1	-0.44	-1.54	0.763
KCNK6	1	-1.22	-1.17	-0.962
DEUP1	1	1.07	1.9	1.03
SLF1	1	3.28	1.74	1.59
SLF1	2	-0.587	-0.585	-0.559
LOC346887 (retired record)	1	0.017	2.03	-0.351
ERC1	1	0.686	0.59	0.282
TRIM43	1	1.01	-0.592	0.5
MAP3K3	1	0.687	0.178	0.431
OR5AC2	1	-1.05	0.185	-0.224
CNRIP1	1	0.688	1.32	0.189
